In the supplement of paper PMC10849652:
The other results are listed elsewhere or left out.

The chains behind the UniProt entries cited, without tags or fusion partners. Where a name states a change or a piece, a line headed by the entry shows the natural chain unless it says otherwise.
UniProt Q96A54: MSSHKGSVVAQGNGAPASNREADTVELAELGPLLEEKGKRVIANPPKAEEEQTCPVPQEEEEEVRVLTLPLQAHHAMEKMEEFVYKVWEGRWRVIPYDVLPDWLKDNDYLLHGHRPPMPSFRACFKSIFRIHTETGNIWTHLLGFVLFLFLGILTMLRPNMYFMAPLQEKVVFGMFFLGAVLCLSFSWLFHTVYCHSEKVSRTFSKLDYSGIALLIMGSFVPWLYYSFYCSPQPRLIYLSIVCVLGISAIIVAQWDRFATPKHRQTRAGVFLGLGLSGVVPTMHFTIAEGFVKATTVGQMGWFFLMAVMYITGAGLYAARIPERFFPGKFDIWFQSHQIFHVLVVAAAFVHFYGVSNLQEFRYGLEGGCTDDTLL
UniProt P54922: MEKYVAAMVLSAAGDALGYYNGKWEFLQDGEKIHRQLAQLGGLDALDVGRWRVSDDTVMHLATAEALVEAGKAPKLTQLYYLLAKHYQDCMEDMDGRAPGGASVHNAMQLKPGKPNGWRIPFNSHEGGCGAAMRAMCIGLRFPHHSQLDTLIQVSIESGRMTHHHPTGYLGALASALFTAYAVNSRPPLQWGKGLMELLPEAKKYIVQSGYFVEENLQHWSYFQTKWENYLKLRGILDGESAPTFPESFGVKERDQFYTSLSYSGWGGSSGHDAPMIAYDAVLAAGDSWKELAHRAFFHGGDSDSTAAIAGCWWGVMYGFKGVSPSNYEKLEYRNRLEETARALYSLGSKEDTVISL
UniProt Q01433: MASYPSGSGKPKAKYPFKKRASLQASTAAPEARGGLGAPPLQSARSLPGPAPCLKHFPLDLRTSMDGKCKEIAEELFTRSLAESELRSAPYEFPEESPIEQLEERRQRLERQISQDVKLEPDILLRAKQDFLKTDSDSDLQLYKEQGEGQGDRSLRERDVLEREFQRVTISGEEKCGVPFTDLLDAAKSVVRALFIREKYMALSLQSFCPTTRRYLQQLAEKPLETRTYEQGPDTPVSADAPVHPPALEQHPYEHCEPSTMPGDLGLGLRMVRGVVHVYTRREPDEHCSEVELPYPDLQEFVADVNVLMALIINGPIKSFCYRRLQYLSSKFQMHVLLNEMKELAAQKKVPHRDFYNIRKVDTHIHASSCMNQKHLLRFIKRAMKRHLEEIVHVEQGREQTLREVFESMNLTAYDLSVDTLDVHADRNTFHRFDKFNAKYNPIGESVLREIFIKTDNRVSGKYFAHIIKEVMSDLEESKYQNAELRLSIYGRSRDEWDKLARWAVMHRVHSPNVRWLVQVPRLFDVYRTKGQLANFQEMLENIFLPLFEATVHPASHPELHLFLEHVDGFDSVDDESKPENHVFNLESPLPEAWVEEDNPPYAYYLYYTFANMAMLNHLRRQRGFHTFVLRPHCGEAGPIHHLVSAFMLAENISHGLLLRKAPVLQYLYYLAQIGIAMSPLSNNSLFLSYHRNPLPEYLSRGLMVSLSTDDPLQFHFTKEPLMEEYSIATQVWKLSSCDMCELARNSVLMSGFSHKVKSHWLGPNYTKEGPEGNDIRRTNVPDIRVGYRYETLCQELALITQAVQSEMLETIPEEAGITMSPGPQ
UniProt O94910: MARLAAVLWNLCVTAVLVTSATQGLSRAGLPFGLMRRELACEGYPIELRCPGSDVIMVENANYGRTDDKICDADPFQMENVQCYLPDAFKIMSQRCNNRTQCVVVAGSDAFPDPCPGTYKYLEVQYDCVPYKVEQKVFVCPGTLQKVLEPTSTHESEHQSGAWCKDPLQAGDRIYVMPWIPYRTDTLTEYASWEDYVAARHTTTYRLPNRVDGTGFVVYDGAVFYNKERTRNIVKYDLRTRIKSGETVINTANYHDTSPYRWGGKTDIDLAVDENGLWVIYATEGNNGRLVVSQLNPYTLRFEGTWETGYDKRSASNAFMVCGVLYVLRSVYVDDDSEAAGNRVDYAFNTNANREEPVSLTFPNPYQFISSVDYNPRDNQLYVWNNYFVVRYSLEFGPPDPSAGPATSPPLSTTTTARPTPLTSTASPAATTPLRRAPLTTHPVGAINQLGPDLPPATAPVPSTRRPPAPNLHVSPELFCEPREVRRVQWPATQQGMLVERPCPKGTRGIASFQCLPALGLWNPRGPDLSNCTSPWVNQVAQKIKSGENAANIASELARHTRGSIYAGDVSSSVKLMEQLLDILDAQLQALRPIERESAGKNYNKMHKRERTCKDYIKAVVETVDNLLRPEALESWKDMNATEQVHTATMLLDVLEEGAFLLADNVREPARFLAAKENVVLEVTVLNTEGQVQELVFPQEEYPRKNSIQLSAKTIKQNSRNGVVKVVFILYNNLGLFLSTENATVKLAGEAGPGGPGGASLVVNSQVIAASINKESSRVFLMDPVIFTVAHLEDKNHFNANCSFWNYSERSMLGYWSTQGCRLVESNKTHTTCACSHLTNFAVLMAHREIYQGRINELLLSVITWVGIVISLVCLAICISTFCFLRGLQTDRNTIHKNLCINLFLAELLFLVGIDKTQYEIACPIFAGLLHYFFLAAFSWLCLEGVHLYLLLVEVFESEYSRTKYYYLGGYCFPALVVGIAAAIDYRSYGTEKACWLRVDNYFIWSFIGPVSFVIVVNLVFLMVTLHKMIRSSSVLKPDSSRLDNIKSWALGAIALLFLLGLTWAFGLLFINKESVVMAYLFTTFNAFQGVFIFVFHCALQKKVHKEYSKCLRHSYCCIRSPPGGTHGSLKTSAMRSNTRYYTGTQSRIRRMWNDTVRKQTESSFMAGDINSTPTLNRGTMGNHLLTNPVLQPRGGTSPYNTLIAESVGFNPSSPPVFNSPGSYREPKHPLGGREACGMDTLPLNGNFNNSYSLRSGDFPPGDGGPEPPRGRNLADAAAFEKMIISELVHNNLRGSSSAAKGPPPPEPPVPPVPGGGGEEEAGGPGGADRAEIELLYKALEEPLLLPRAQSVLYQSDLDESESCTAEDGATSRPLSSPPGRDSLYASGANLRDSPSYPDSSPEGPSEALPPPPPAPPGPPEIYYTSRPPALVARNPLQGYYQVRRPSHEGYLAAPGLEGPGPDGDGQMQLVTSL
UniProt Q86W34: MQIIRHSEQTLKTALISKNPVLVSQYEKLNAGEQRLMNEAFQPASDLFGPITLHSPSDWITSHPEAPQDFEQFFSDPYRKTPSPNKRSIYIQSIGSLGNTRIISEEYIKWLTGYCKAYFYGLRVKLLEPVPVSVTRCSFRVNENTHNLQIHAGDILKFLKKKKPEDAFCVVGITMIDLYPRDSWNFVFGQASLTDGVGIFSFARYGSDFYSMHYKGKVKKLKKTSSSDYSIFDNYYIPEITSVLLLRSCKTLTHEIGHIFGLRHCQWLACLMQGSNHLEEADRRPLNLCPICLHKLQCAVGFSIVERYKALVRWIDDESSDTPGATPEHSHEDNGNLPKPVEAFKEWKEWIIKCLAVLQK
UniProt Q9UEY8: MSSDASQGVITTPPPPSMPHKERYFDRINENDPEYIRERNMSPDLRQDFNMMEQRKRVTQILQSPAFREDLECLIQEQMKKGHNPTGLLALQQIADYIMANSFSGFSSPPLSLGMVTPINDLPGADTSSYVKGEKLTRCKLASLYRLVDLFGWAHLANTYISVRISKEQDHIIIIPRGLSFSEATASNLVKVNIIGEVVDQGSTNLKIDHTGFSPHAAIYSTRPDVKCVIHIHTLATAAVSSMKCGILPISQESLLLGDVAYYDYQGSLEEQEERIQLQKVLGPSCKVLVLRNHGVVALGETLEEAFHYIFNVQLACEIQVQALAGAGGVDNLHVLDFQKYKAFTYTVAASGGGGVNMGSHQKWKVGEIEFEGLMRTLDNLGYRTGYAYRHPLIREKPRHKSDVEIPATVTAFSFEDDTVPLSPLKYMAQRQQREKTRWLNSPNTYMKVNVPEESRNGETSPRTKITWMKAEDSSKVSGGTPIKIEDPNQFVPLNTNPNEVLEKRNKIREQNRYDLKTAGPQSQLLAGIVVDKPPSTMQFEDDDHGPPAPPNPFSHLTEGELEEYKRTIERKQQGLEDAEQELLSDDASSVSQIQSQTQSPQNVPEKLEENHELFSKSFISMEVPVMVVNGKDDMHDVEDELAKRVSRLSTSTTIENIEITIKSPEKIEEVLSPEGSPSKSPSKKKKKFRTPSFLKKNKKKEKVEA
UniProt P55008: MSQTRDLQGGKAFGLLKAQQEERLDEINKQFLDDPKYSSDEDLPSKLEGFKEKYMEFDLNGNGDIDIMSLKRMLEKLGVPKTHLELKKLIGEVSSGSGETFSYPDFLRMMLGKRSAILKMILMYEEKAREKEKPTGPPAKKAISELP
UniProt Q9Y4X0: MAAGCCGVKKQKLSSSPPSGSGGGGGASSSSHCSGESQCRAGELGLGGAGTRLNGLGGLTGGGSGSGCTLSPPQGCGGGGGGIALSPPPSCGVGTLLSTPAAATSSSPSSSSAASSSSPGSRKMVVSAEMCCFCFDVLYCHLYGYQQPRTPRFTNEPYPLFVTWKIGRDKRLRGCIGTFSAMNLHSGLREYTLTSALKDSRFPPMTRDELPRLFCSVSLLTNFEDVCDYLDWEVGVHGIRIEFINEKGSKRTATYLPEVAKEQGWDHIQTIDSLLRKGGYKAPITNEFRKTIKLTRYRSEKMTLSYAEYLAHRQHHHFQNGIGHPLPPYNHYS
UniProt Q9UKA4: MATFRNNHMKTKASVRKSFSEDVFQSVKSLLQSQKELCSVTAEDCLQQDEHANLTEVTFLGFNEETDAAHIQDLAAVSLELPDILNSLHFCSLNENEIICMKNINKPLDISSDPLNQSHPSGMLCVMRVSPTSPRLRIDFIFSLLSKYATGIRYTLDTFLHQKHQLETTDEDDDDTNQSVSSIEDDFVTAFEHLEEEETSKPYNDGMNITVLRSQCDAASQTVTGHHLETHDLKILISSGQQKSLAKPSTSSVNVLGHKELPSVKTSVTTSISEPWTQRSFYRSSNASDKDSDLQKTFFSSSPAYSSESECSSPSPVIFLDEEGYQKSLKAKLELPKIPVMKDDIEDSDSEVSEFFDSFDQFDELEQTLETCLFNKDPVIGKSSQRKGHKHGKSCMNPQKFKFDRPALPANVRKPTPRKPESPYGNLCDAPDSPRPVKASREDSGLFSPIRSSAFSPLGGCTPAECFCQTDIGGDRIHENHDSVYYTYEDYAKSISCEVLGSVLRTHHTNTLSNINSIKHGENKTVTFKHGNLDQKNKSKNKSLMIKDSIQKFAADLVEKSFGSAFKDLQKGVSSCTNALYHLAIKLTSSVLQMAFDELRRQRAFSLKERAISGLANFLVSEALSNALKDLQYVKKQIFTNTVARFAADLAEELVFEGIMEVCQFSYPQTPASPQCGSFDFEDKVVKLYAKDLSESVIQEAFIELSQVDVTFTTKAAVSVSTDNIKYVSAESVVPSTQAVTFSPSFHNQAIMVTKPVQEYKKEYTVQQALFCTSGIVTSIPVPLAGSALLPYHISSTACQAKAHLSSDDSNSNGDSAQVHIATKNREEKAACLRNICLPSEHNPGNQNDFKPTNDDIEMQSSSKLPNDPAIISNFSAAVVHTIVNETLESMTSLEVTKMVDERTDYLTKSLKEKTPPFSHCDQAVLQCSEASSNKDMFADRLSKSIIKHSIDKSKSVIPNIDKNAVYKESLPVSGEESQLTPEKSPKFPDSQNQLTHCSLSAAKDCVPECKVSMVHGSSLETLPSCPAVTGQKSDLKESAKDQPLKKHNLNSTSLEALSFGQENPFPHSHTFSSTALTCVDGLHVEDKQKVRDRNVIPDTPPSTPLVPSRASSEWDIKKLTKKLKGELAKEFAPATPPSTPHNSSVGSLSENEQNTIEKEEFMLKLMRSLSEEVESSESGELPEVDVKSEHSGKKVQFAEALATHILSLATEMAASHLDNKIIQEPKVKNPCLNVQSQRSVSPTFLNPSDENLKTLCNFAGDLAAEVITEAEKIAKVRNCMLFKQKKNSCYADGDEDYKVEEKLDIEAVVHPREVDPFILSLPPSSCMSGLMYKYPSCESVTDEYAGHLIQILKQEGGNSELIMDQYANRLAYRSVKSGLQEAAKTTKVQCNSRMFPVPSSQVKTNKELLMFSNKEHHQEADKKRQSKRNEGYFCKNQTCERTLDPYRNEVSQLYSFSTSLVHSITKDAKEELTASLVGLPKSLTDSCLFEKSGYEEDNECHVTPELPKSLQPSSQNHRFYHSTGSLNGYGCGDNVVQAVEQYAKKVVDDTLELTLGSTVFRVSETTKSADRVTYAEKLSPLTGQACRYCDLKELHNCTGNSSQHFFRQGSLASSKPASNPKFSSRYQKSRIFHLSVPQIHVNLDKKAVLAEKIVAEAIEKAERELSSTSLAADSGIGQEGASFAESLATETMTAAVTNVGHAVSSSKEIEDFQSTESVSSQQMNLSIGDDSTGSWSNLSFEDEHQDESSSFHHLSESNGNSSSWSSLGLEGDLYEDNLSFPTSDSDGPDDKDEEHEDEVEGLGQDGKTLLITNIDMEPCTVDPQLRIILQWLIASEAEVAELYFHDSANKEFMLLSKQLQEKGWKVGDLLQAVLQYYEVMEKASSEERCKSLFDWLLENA

Assays:
Assay in all cases: log2 fold change, soluble protein after heating vs DMSO (PISA); higher = thermal stabilisation; K562 cells, 10 uM, 30 min; active = over 0.2 and 3.5 SD of the protein, either way, in both replicates (recomputed)
[1] = compound: Cc1ccc(NC(=O)c2ccc(CN3CC[C@H](N(C)C)C3)c(C(F)(F)F)c2)cc1Nc1nccc(-c2cncnc2)n1 [bafetinib]
How it was run: (§1)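 Aliquots of K562 cells (2×10^6 cells/mL) treated with 10 μM compound for 30 min were heated for 3 min over 48°C-58°C. After pooling and extraction in PBS with 0.5% NP-40 at 4°C, soluble protein from a 21,000xg, 90 min spin was quantified by TMTpro 16plex LC-MS/MS with channel sums equalised. Thermal stability is expressed against control samples, from duplicates, as a log2 fold change.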

[2] = compound: Cc1cccc(CC(=O)N2CCc3c2ccc(-c2cn(C)c4ncnc(N)c24)c3F)n1
How it was run: as §1

[3] = compound: Cc1cn(-c2cc(NC(=O)c3ccc(C)c(Nc4nccc(-c5cccnc5)n4)c3)cc(C(F)(F)F)c2)cn1 [nilotinib]
How it was run: as §1

[4] = compound: Cc1nc(Nc2n[nH]c3c2CN(C(=O)N[C@H](CN(C)C)c2ccccc2)C3(C)C)c2sccc2n1
How it was run: as §1

[5] = compound: Cc1ncc(-c2ccnc(Nc3ccc(S(C)(=O)=O)cc3)n2)n1C(C)C
How it was run: as §1

[6] = compound: Cn1cc(-c2ccc3c(c2)CCN3C(=O)Cc2cccc(C(F)(F)F)c2)c2c(N)ncnc21
How it was run: as §1

[7] = compound: FC(F)(F)c1ccc(/C=C/c2nc(COc3ccc(CCCCn4ccnn4)cc3)co2)cc1 [mubritinib]
How it was run: as §1

[8] = compound: Cc1nc(Nc2ncc(C(=O)Nc3c(C)cccc3Cl)s2)cc(N2CCN(CCO)CC2)n1 [dasatinib]
How it was run: as §1

[9] = compound: Cn1cc(-c2ccc3nnc(C(F)(F)c4ccc5ncccc5c4)n3n2)cn1
How it was run: as §1

[10] = compound: Cn1cncc1[C@@](N)(c1ccc(Cl)cc1)c1ccc2c(c1)c(-c1cccc(Cl)c1)cc(=O)n2C [tipifarnib]
How it was run: as §1

Measured: log2 fold change

ADGRV1 (UniProt Q8WXG9)
inactive: [1] 0.055 | [2] -0.066 | [3] -0.125 | [4] 0.024 | [5] -0.021 | [6] -0.021 | [7] 0.035

AFF4 (UniProt Q9UHB7)
inactive: [1] 0.415 | [2] -0.069 | [8] -0.044 | [7] -0.041

ADIPOR1 (UniProt Q96A54)
inactive: [1] -0.089 | [3] -0.057 | [4] 0.065 | [8] -0.077 | [5] 0.003 | [9] 0 | [10] -0.051 | [7] 0.1

ALDH1B1 (UniProt P30837)
inactive: [1] 0.03 | [2] -0.018 | [3] 0.003 | [4] 0.014 | [8] -0.113 | [5] 0.131 | [6] 0.022 | [9] 0.034 | [10] -0.018 | [7] 0.059

ADPRH (UniProt P54922)
inactive: [1] 0.082 | [2] -0.29 | [3] 0.141 | [4] 0.026 | [5] -0.161 | [9] 0.038 | [10] -0.005 | [7] 0.015

ALKBH4 (UniProt Q9NXW9)
inactive: [1] 0.038 | [2] 0.087 | [8] 0 | [6] -0.022 | [9] 0.017 | [10] -0.001 | [7] -0.122

ALMS1 (UniProt Q8TCU4)
inactive: [1] -0.132 | [2] 0.032 | [3] -0.095 | [4] 0.131 | [5] -0.016

ALG12 (UniProt Q9BV10)
inactive: [1] 0.009 | [8] 0.027 | [6] 0.076 | [10] -0.051 | [7] -0.011

ADH5 (UniProt P11766)
inactive: [1] -0.009 | [2] 0.006 | [3] -0.013 | [4] 0.023 | [8] 0.036 | [5] 0.013 | [6] 0.021 | [9] -0.006 | [10] -0.029 | [7] 0.028

AMPD2 (UniProt Q01433)
inactive: [1] -0.011 | [2] 0.002 | [3] 0.035 | [4] -0.029 | [8] -0.013 | [5] -0.032 | [6] 0.033 | [9] 0.012 | [10] 0.017 | [7] 0.034

ADCY3 (UniProt O60266)
inactive: [2] 0.003 | [8] -0.218 | [6] 0.109 | [9] 0.091 | [10] -0.056

AKNA (UniProt Q7Z591)
inactive: [6] -0.134 | [10] 0.215

AGTRAP isoform 2 (UniProt Q6RW13)
inactive: [2] -0.053

ADGRL1 (UniProt O94910)
inactive: [2] 0.082

AKAP9 isoform 6 (UniProt Q99996)
inactive: [3] 0.007 | [4] -0.084 | [5] 0.324 | [6] -0.107 | [9] 0.135 | [7] 0.141

AKIRIN2 (UniProt Q53H80)
inactive: [2] 0.05 | [3] -0.082 | [4] -0.06 | [8] 0.025 | [5] -0.058 | [6] 0.011 | [9] 0.037 | [10] 0.059 | [7] 0.027

2 successive entries already listed:
AKAP9 isoform 6 (UniProt Q99996)
inactive: [3] 0.007 | [4] -0.084 | [5] 0.324 | [6] -0.107 | [9] 0.135 | [7] 0.141

AKIRIN2 (UniProt Q53H80)
inactive: [2] 0.05 | [3] -0.082 | [4] -0.06 | [8] 0.025 | [5] -0.058 | [6] 0.011 | [9] 0.037 | [10] 0.059 | [7] 0.027

(continued)

AMZ2 (UniProt Q86W34)
inactive: [8] -0.032 | [9] -0.1 | [10] 0.066 | [7] -0.141

ALKBH7 (UniProt Q9BT30)
inactive: [2] -0.076 | [6] -0.244 | [9] 0.015

AGAP1 (UniProt Q9UPQ3)
inactive: [8] -0.122 | [6] -0.005 | [9] 0.053

AHSP (UniProt Q9NZD4)
inactive: [3] 0.153 | [4] -0.115 | [5] 0.004 | [9] 0.15 | [7] 0.024

ADD2 isoform 9 (UniProt P35612)
inactive: [1] 0.021 | [9] -0.002 | [10] 0.149 | [7] -0.125

AGTPBP1 isoform 3 (UniProt Q9UPW5)
inactive: [8] -0.105 | [9] -0.098 | [7] 0.246

ADCY7 (UniProt P51828)
inactive: [2] -0.254 | [3] 0.017 | [4] -0.075 | [8] 0.01 | [5] 0.186 | [6] -0.181 | [9] 0.185

AIG1 (UniProt Q9NVV5)
inactive: [2] -0.009 | [8] 0.308

ADD3 isoform 2 (UniProt Q9UEY8)
inactive: [2] 0.05 | [8] -0.116 | [6] 0.152 | [9] -0.026 | [10] -0.067 | [7] -0.007

ALOX5 (UniProt P09917)
inactive: [8] 0.186

ADCK5 (UniProt Q3MIX3)
inactive: [9] 0.02

ALS2 (UniProt Q96Q42)
inactive: [9] 0.173 | [10] 0

AIF1 (UniProt P55008)
inactive: [1] 0.035 | [9] 0.153 | [10] 0.051

AMMECR1 (UniProt Q9Y4X0)
inactive: [8] -0.193 | [6] -0.014 | [9] -0.124

ADGB (UniProt Q8N7X0)
inactive: [2] -0.108 | [10] 0.113 | [7] 0.116

AMDHD2 (UniProt Q9Y303)
inactive: [2] 0.018 | [8] -0.136 | [6] -0.025 | [10] -0.015

AKAP11 (UniProt Q9UKA4)
inactive: [2] 0.04 | [6] -0.445

AFMID isoform 2 (UniProt Q63HM1)
inactive: [7] 0.347

ANAPC15 isoform 2 (UniProt P60006)
inactive: [6] -0.116 | [10] 0.038

ALOX12B (UniProt O75342)
inactive: [1] 0.112 | [8] -0.751 | [9] 0.729 | [10] 0.5 | [7] -0.081

AGGF1 (UniProt Q8N302)
inactive: [1] -0.166 | [7] 0.246

AMBRA1 isoform 5 (UniProt Q9C0C7)
inactive: [1] 0.009 | [8] -0.051 | [6] 0.026 | [7] 0.16

ALDH7A1 (UniProt P49419)
inactive: [2] 0.111 | [7] -0.182

AKTIP isoform 2 (UniProt Q9H8T0)
inactive: [1] 0.206 | [10] -0.062 | [7] 0.054

AKR1C1 (UniProt Q04828)
inactive: [7] 0.158

ADNP (UniProt Q9H2P0)
inactive: [2] -0.271 | [3] 0.057 | [4] 0.025 | [5] -0.102 | [7] -0.435

ADGRD1 isoform 4 (UniProt Q6QNK2)
inactive: [8] -0.023 | [6] -0.223 | [7] -0.508
